The source of these data is article PMC5323046.

Protein sequences, listed by entry. Tags and fused reporters are not part of them.
UniProt P51159: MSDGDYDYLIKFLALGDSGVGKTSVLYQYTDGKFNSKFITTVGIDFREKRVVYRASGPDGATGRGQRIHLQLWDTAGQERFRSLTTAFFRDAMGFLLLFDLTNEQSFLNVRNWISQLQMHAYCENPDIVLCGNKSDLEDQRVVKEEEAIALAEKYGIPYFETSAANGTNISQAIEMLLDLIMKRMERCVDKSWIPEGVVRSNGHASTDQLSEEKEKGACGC

The target in one test is T1, HA-tagged ATG13 (human) (UniProt O75143).
T1 sequence: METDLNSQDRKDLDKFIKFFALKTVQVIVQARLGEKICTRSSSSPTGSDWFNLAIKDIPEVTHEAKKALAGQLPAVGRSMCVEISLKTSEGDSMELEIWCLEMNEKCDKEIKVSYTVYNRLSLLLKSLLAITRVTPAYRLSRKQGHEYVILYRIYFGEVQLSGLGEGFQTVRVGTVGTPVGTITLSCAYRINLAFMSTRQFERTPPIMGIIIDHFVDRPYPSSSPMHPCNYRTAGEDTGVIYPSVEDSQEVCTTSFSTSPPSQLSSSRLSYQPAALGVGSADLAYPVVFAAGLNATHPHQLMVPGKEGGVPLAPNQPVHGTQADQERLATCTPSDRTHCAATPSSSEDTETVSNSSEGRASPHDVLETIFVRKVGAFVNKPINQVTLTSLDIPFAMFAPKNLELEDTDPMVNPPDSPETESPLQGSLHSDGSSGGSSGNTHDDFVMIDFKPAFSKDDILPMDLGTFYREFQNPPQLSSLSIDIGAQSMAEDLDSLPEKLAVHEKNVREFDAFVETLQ
Kind of test: affinity purification with mass spectrometry + SEC; HA-IP of HA-ATG13 from 293T-REx cells, HA-peptide eluate on Superose 6 10/300 GL, fractions analysed by mass spectrometry; DMSO or 250 nM Torin1 for 2 hr.

Test [1] deals with HA-tagged RAB27A (Ras-related protein Rab-27A) (human) (UniProt P51159). Kind of test: affinity purification with mass spectrometry; 293T-REx cells inducibly expressing N-terminally HA-tagged baits; lysis in MCLB (50 mM Tris pH 7.4, 150 mM NaCl, 0.5% NP40); anti-HA-agarose, elution with HA peptide, trypsin, LC-MS/MS; CompPASS, HCIPs with WDN >=1 and APSM >=2.
The target in another test is T2, HA-tagged RAB27B (human) (UniProt O00194).
T2 sequence: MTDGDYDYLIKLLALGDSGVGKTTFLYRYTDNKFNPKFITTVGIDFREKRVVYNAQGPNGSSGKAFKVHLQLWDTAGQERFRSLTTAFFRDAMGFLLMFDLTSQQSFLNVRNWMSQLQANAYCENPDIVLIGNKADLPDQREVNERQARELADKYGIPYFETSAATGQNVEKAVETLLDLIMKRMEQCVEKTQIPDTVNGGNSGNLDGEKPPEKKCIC
Described as above.

The target of test [2] is T3, HA-tagged full-length SMCR8 (human) (UniProt Q8TEV9).
T3 sequence: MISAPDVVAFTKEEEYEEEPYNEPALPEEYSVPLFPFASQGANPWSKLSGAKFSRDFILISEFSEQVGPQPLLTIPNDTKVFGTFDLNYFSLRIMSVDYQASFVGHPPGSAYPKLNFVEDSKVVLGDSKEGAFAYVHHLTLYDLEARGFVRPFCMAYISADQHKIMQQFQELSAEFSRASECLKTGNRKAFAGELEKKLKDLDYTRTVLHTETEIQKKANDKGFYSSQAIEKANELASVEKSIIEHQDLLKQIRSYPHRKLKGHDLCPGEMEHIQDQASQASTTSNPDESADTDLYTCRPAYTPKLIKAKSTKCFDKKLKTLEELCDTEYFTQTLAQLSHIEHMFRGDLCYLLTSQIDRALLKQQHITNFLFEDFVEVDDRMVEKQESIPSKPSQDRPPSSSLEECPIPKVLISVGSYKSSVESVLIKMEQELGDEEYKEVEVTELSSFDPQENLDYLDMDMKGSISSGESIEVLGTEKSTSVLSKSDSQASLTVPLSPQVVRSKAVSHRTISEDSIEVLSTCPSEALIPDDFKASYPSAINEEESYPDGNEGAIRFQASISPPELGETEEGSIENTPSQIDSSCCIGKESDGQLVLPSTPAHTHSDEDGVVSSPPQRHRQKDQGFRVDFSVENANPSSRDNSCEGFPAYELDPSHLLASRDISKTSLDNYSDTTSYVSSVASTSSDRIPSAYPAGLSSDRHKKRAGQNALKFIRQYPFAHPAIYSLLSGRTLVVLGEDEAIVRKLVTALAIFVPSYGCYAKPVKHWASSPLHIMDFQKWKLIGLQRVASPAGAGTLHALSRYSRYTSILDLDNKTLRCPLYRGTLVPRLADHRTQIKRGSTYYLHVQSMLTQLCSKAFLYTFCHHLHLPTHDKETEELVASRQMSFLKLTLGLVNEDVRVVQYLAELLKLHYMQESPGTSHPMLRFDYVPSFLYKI
The test is described as above.

Results are given in words; binding and its absence hold for the method and conditions named. Binding seen in cells or lysates may run through a third protein. These calls come from enrichment with a bait or labelling near it, and not all partners need be listed. For some assays here: Where a sequence is shown, tags or fusion partners need not be part of it.

B1: endogenous SMCR8 (protein, UniProt Q8TEV9 1-937)
chain: MISAPDVVAFTKEEEYEEEPYNEPALPEEYSVPLFPFASQGANPWSKLSGAKFSRDFILISEFSEQVGPQPLLTIPNDTKVFGTFDLNYFSLRIMSVDYQASFVGHPPGSAYPKLNFVEDSKVVLGDSKEGAFAYVHHLTLYDLEARGFVRPFCMAYISADQHKIMQQFQELSAEFSRASECLKTGNRKAFAGELEKKLKDLDYTRTVLHTETEIQKKANDKGFYSSQAIEKANELASVEKSIIEHQDLLKQIRSYPHRKLKGHDLCPGEMEHIQDQASQASTTSNPDESADTDLYTCRPAYTPKLIKAKSTKCFDKKLKTLEELCDTEYFTQTLAQLSHIEHMFRGDLCYLLTSQIDRALLKQQHITNFLFEDFVEVDDRMVEKQESIPSKPSQDRPPSSSLEECPIPKVLISVGSYKSSVESVLIKMEQELGDEEYKEVEVTELSSFDPQENLDYLDMDMKGSISSGESIEVLGTEKSTSVLSKSDSQASLTVPLSPQVVRSKAVSHRTISEDSIEVLSTCPSEALIPDDFKASYPSAINEEESYPDGNEGAIRFQASISPPELGETEEGSIENTPSQIDSSCCIGKESDGQLVLPSTPAHTHSDEDGVVSSPPQRHRQKDQGFRVDFSVENANPSSRDNSCEGFPAYELDPSHLLASRDISKTSLDNYSDTTSYVSSVASTSSDRIPSAYPAGLSSDRHKKRAGQNALKFIRQYPFAHPAIYSLLSGRTLVVLGEDEAIVRKLVTALAIFVPSYGCYAKPVKHWASSPLHIMDFQKWKLIGLQRVASPAGAGTLHALSRYSRYTSILDLDNKTLRCPLYRGTLVPRLADHRTQIKRGSTYYLHVQSMLTQLCSKAFLYTFCHHLHLPTHDKETEELVASRQMSFLKLTLGLVNEDVRVVQYLAELLKLHYMQESPGTSHPMLRFDYVPSFLYKI
B1: the binding entry with HA-tagged ATG13 (human) is recorded as “binds”.

B2: endogenous C9ORF72 (protein, UniProt Q96LT7 1-481)
chain: MSTLCPPPSPAVAKTEIALSGKSPLLAATFAYWDNILGPRVRHIWAPKTEQVLLSDGEITFLANHTLNGEILRNAESGAIDVKFFVLSEKGVIIVSLIFDGNWNGDRSTYGLSIILPQTELSFYLPLHRVCVDRLTHIIRKGRIWMHKERQENVQKIILEGTERMEDQGQSIIPMLTGEVIPVMELLSSMKSHSVPEEIDIADTVLNDDDIGDSCHEGFLLNAISSHLQTCGCSVVVGSSAEKVNKIVRTLCLFLTPAERKCSRLCEAESSFKYESGLFVQGLLKDSTGSFVLPFRQVMYAPYPTTHIDVDVNTVKQMPPCHEHIYNQRRYMRSELTAFWRATSEEDMAQDTIIYTDESFTPDLNIFQDVLHRDTLVKAFLDQVFQLKPGLSLRSTFLAQFLLVLHRKALTLIKYIEDDTQKGKKPFKSLRNLKIDLDLTAEGDLNIIMALAEKIKPGLHSFIFGRPFYTSVQERDVLMTF
As for B2, the binding result with HA-tagged ATG13 (human) is recorded as “binds”.

B3: SYTL4 (protein, UniProt Q96C24 1-671)
chain: MSELLDLSFLSEEEKDLILSVLQRDEEVRKADEKRIRRLKNELLEIKRKGAKRGSQHYSDRTCARCQESLGRLSPKTNTCRGCNHLVCRDCRIQESNGTWRCKVCAKEIELKKATGDWFYDQKVNRFAYRTGSEIIRMSLRHKPAVSKRETVGQSLLHQTQMGDIWPGRKIIQERQKEPSVLFEVPKLKSGKSALEAESESLDSFTADSDSTSRRDSLDKSGLFPEWKKMSAPKSQVEKETQPGGQNVVFVDEGEMIFKKNTRKILRPSEYTKSVIDLRPEDVVHESGSLGDRSKSVPGLNVDMEEEEEEEDIDHLVKLHRQKLARSSMQSGSSMSTIGSMMSIYSEAGDFGNIFVTGRIAFSLKYEQQTQSLVVHVKECHQLAYADEAKKRSNPYVKTYLLPDKSRQGKRKTSIKRDTINPLYDETLRYEIPESLLAQRTLQFSVWHHGRFGRNTFLGEAEIQMDSWKLDKKLDHCLPLHGKISAESPTGLPSHKGELVVSLKYIPASKTPVGGDRKKSKGGEGGELQVWIKEAKNLTAAKAGGTSDSFVKGYLLPMRNKASKRKTPVMKKTLNPHYNHTFVYNGVRLEDLQHMCLELTVWDREPLASNDFLGGVRLGVGTGISNGEVVDWMDSTGEEVSLWQKMRQYPGSWAEGTLQLRSSMAKQKLGL
Turning to B3, the binding result (in test [1]; with HA-tagged RAB27B (human)) was “binds” in each case.

B4: endogenous WDR41 (protein, UniProt Q9HAD4 1-459)
chain: MLRWLIGGGREPQGLAEKSPLQTIGEEQTQNPYTELLVLKAHHDIVRFLVQLDDYRFASAGDDGIVVVWNAQTGEKLLELNGHTQKITAIITFPSLESCEEKNQLILTASADRTVIVWDGDTTRQVQRISCFQSTVKCLTVLQRLDVWLSGGNDLCVWNRKLDLLCKTSHLSDTGISALVEIPKNCVVAAVGKELIIFRLVAPTEGSLEWDILEVKRLLDHQDNILSLINVNDLSFVTGSHVGELIIWDALDWTMQAYERNFWDPSPQLDTQQEIKLCQKSNDISIHHFTCDEENVFAAVGRGLYVYSLQMKRVIACQKTAHDSNVLHVARLPNRQLISCSEDGSVRIWELREKQQLAAEPVPTGFFNMWGFGRVSKQASQPVKKQQENATSCSLELIGDLIGHSSSVEMFLYFEDHGLVTCSADHLIILWKNGERESGLRSLRLFQKLEENGDLYLAV
For B4, the binding result with HA-tagged ATG13 (human) is given as “binds”.

B5: HPS6 (protein, UniProt Q86YV9 1-775)
chain: MKRSGTLRLLSDLSAFGGAARLRELVAGDSAVRVRGSPDGRHLLLLRPPGAVAPQLLVASRGPGAELERAWPAGQPSPLDAFFLPWPARPALVLVWESGLAEVWGAGVGPGWRPLQSTELCPGGGARVVAVAALRGRLVWCEERQARAEGPSGSPAAAFSHCVCVRTLEPSGEASTSLGRTHVLLHHCPAFGLLASCRQLFLVPTATTWPGVAHVLLIWSPGKGKVMVAAPRLGLSYSKSLNPGRGDTWDFRTLLRGLPGLLSPREPLAVHTWAPTPQGLLLLDFGGTVSLLQSHGGTRAVGTLQEAPVGPWGSAALGTFQGTLACVLGSTLELLDMGSGQLLERKVLSTDRVHLLEPPAPGMEDEEELETRGNLRLLSALGLFCVGWEAPQGVELPSAKDLVFEEACGYYQRRSLRGAQLTPEELRHSSTFRAPQALASILQGHLPPSALLTMLRTELRDYRGLEQLKAQLVAGDDEEAGWTELAEQEVARLLRTELIGDQLAQLNTVFQALPTAAWGATLRALQLQLDGNGKLRSQAPPDVWKKVLGGITAGKEPPNGILPPFELLCQCLCQLEPRWLPPFVELAQQQGGPGWGAGGPGLPLYRRALAVLGEEGTRPEALELELLLSSGRPKAVLQAVGQLVQKEQWDRALDAGLALGPSSPLLRSEIFKLLLAEFAQHRRLDAHLPLLCRLCPPELAPAELLLLLRTYLPDEVGPPTPFPEPGAEPPLTVGLLKALLEQTGAQGWLSGPVLSPYEDILWDPSTPPPTPPRDL
As to B5, the binding entry in test [2] was “binds”.

B6: GLRX5 (protein, UniProt Q86SX6 32-157)
chain: AGSGAGGGGSAEQLDALVKKDKVVVFLKGTPEQPQCGFSNAVVQILRLHGVRDYAAYNVLDDPELRQGIKDYSNWPTIPQVYLNGEFVGGCDILLQMHQNGDLVEELKKLGIHSALLDEKKDQDSK
With B6, the binding result in test [2] was “binds”.

B7: NUBPL (protein, UniProt Q8TB37 39-319)
chain: GAGSETLKQRRTQIMSRGLPKQKPIEGVKQVIVVASGKGGVGKSTTAVNLALALAANDSSKAIGLLDVDVYGPSVPKMMNLKGNPELSQSNLMRPLLNYGIACMSMGFLVEESEPVVWRGLMVMSAIEKLLRQVDWGQLDYLVVDMPPGTGDVQLSVSQNIPITGAVIVSTPQDIALMDAHKGAEMFRRVHVPVLGLVQNMSVFQCPKCKHKTHIFGADGARKLAQTLGLEVLGDIPLHLNIREASDTGQPIVFSQPESDEAKAYLRIAVEVVRRLPSPSE
Consider B7, for which the binding entry in test [2] is recorded as “binds”.
